From PubChem BioAssay AID2685 (National Center for Advancing Translational Sciences (NCATS), 2010)
Out of some 320,000 compounds screened, about 2,100 (0.66%) were called active. This list was built around the results that the source calls inconclusive (neither active nor inactive); the mix of calls is not that of the screen. Calls come from the whole dose curve; as a rule, active = well fitted inhibition curve with a large enough effect in the signal ratio, with a control signal flat (not every such curve was filed as active); inconclusive = small, poorly fitted or top-dose-only effect, or effect the other way, or a change in a side signal; inactive = flat fitted curve, though single readings scatter; the % refers to the signal ratio. A potency beside an inconclusive call is a rough fit, not a confirmed value.

Assay: qHTS Assay for Lipid Storage Modulators in Drosophila S3 Cells
Details: BODIPY lipid droplet fluorescence, 18-24 h, cells fed with added oleic acid; lipid storage change, negative = inhibition: at 46.1 µM (top of the series) unless noted
In short: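 Laser-scanning cytometry quantifies lipid droplet accumulation (500–530 nm total intensity; droplet/cell object ratio) in oleic acid-fed (400 uM added) Drosophila S3 cells treated with a concentration series. 20 uM Triacsin C defined 100% inhibition.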
% is set by controls: 0 for no effect and ±100 for the full control effect; potency is the fitted concentration of half-maximal effect.

SMILES | lipid storage change, negative = inhibition | Potency | outcome
COCCCNC(=S)Nc1ccc(CC(=O)O)cc1 | inconclusive: -21.7% | – | –
O=C(Cn1c(=O)ccn(Cc2ccccc2)c1=O)Nc1cccc(S(=O)(=O)N2CCOCC2)c1 | inconclusive: -32.5% | – | –
COc1ccc(/C(C)=N/NC(=O)C(NC(=O)c2ccccc2)c2n[nH]c(=O)c3ccccc23)c(OC)c1 (stereo not given) | inconclusive: 2.86% | – | –
O=C(Nc1cccnc1)c1ccccc1-c1nc(-c2ccccc2F)no1 | inconclusive: 2.17% | – | –
O=C(NC(=S)Nc1nc2ccccc2s1)c1cccs1 | inconclusive: -10.3% | – | –
O=C1c2cccc3cccc(c23)C(=O)N1CCCN(C(=O)c1cccs1)c1cccc(F)c1 | inconclusive: 0.765% | – | –
Cc1ccc2nc(NC(=O)CCCC(=O)O)sc2c1 | inconclusive: -14.7% [at 9.22 µM] | – | –
CCN(CCNC(=O)C1CCCN(S(=O)(=O)c2cnc[nH]2)C1)c1ccccc1 (stereo not given) | inconclusive: -1.07% | – | –
COCCNC(=O)C(C)OC(=O)c1cc2sccc2n1C (stereo not given) | inconclusive: -7.35% | – | –
CCc1nnc(NC(=O)c2nc(S(=O)(=O)Cc3cccc(C)c3)ncc2Cl)s1 | – | inconclusive: 2.31 µM [falling, single point] | –
CCCC(=O)c1ccc(N2CCN(S(=O)(=O)c3ccc(C)cc3)CC2)c(F)c1 | inconclusive: 4.94% | – | –
O=C(COC(=O)CN1C(=O)C2CCCCC2C1=O)NCc1ccc(Cl)cc1Cl (stereo not given) | inconclusive: -79.2% | – | –
COc1ccc(-n2nnnc2SCC(=O)N2CCOCC2)cc1 | inconclusive: 14.5% | – | –
O=C(c1ccco1)N(CCO)Cc1cc2cc3c(cc2[nH]c1=O)OCO3 | – | inconclusive: 16.4 µM [rising, single point] | –
O=C(OCc1cccc2ccccc12)C1CC(=O)N(c2ccccc2)C1 (stereo not given) | inconclusive: 12.9% | – | –
NC(=O)CSc1oc(-c2ccco2)nc1S(=O)(=O)c1ccc(Br)cc1 | – | inconclusive: 29.1 µM [activator, single point] | –
O=C(CN1C(=O)CCSc2ccc(S(=O)(=O)N3CCCC3)cc21)Nc1ccccc1 | – | inconclusive: 6.51 µM [activator, partial curve] | –
O=C(CCOc1ccccc1)Nc1ccnn1C1CCN(C(=O)CCC(F)(F)F)CC1 | – | – | inactive [at 46.1 µM]
CCCOc1ccc(NC(=O)c2cc3cc(C)ccc3[nH]2)cc1 | – | inconclusive: 4.11 µM [activator, single point] | –
COc1cc(OC)cc(C(=O)N2CCN(C3CCCCC3)CC2)c1 | inconclusive: 77.6% | – | –
Cc1cc2n(n1)C(c1sccc1C)Nc1ccccc1-2 (stereo not given) | inconclusive: 11% | – | –
CC(C)c1ccc(N(CC(=O)NCc2cccnc2)S(=O)(=O)c2ccccc2)cc1 | – | inconclusive: 18.4 µM [activator, partial curve] | –
Cc1ccc(N2CCN(C(=S)Nc3ccc(Cl)cc3)CC2)cc1 | – | inconclusive: 29.1 µM [activator, single point] | –
O=C(Nc1ccccn1)c1ccc(C(=O)c2ccccc2)cc1 | – | inconclusive: 23.1 µM [falling, single point] | –
COc1ccc(NS(=O)(=O)c2csc(C(=O)N3CCCC3)c2)c(OC)c1 | inconclusive: 41.2% | – | –

SMILES | lipid storage change, negative = inhibition | Potency | outcome
CC(C)(C)C(=O)c1cn(CC(=O)NCc2ccc3c(c2)OCO3)c2ccccc12 | inconclusive: -0.807% | – | –
O=C(COC(=O)CNC(=O)c1ccc(Cl)cc1Cl)NC(=O)NC1CCCCC1 | inconclusive: -18.9% | – | –
CCCCCN1CSC(=S)N(Cc2ccccc2)C1 | – | inconclusive: 5.8 µM [falling, full curve, poor fit] | –
CC(C)(C)n1cnc2cc(NC(=O)c3cccs3)ccc21 | inconclusive: -52.2% [cytotoxic] [at 0.369 µM] | – | –
Cc1cc(S(=O)(=O)N2CCCCC2)ccc1OCC(=O)N1CCCC1 | – | inconclusive: 29.1 µM [activator, single point] | –
Cc1ccc(N(CC(=O)NCc2ccc3c(c2)OCO3)C(=O)c2csnn2)cc1 | inconclusive: -35.3% | – | –
CCc1ccc(N2CC(C(=O)Nc3ccc4c(c3)OCCO4)CC2=O)cc1 (stereo not given) | – | inconclusive: 29.1 µM [activator, partial curve] | –
Cc1cccc(S(=O)(=O)NC2CCCCCCC2)c1 | – | inconclusive: 32.6 µM [activator, single point] | –
CC(C)NC(=O)CCCc1ccccc1 | inconclusive: -1.29% | – | –
OC(CNCC1(N2CCCCC2)CCCCC1)COc1ccc(Cl)cc1Cl (stereo not given) | inconclusive: 4.32% | – | –
O=C(NCc1ccco1)c1cc2n(n1)C(C(F)(F)F)CC(c1ccc(Cl)c(Cl)c1)N2 (stereo not given) | inconclusive: 48.5% | – | –
Cc1ccccc1NC(=O)COC(=O)c1cc[n+]([O-])cc1 | inconclusive: 7.56% | – | –
C=CCN1C(=O)c2ccccc2NC1c1ccc(Br)s1 (stereo not given) | inconclusive: -1.09% | – | –
S=C(NCCc1ccccc1)N1CCn2cccc2C1c1ccncc1 (stereo not given) | – | active: 7.31 µM | –
O=C(Nc1ccc(C(=O)c2ccccc2)cc1)c1ccccc1 | inconclusive: -23.2% | – | –
O=C(NCc1ccccn1)Nc1cccc(Cl)c1 | – | inconclusive: 23.1 µM [falling, single point] | –
CN1CCCN(c2ccc([N+](=O)[O-])cc2)CC1 | inconclusive: 4.14% | – | –
Cc1ccc(-c2cc(-c3ccc(C)cc3O)[nH]n2)cc1 | inconclusive: -54.1% | – | –
Cc1cc(S(=O)(=O)Nc2cccc(Cl)c2)c(C)s1 | inconclusive: -20.7% | – | –
Cc1c(/C=N/n2cnnc2)c2ccccc2n1CCOc1ccc(Cl)cc1 | – | inconclusive: 0.411 µM [activator, full curve, poor fit] | –
Cc1ccc(C)c(OCC(=O)Nc2c[nH]c(=O)[nH]c2=O)c1 | inconclusive: -19.9% | – | –
Cc1ccsc1CN(C)C(=O)CN1C(=O)NC(c2ccccc2)(c2ccccc2)C1=O | – | inconclusive: 0.146 µM [falling, full curve, poor fit] | –
CCOc1ccc(OCCCCNCCN)cc1 | – | inconclusive: 5.17 µM [falling, full curve] | –
O=C(NCc1ccc(F)cc1)C1CCCN1C(=O)Nc1ccc(F)cc1 (stereo not given) | inactive: 10.1% | – | –
Cc1ccc(NC(=O)CN2CCC3(O)CCCCC3C2c2ccc3c(c2)OCO3)c(C)c1 (stereo not given) | inconclusive: -4.29% | – | –

Taken from above:
For lipid storage change, negative = inhibition, Cc1ccc(-c2cc(-c3ccc(C)cc3O)[nH]n2)cc1 shows inconclusive: -54.1%
For lipid storage change, negative = inhibition, Cc1ccc(C)c(OCC(=O)Nc2c[nH]c(=O)[nH]c2=O)c1 shows inconclusive: -19.9%
For lipid storage change, negative = inhibition, OC(CNCC1(N2CCCCC2)CCCCC1)COc1ccc(Cl)cc1Cl (stereo not given) shows inconclusive: 4.32%
